For 35 molecules, AC50 results are on record in PubChem BioAssay AID1487 (National Center for Advancing Translational Sciences (NCATS), 2009).

The list shows a part of the results. These are further read-outs of the screen, such as a control signal, another cell line or another target. No call is given for them. The list favours compounds with an active or inconclusive main result. Words in brackets tell the shape of the fitted curve; partial curves, single points and poor fits give uncertain potencies.

Usually AC50 stands for the concentration at which the activity in the assay is half-maximal.

The nature of this assay: qHTS Assay for Modulators of Lamin A Splicing. Conditions: HeLa LMNA splicing GFP/RFP minigene ratio, 48 h. The procedure, abridged: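 S3 HeLa stable clones carrying a lamin A-EGFP splicing minigene plus DsRed2 were seeded at 600 cells/well in Opti-MEM with 2% FBS, pin-dosed and incubated 48 h at 37°C. Acumen cytometry (488 nm) gave the GFP/RFP total-intensity ratio.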
In general terms: In qHTS, concentration-response curves come from the screen itself.

The mark [1] stands for this setting: measured here: RFP viability control channel.
Setting [2] is: measured here: GFP splicing reporter channel.

In the case of `CCOc1ccc(C(c2c(C)[nH][nH]c2=O)c2c(C)[nH][nH]c2=O)cc1OCC`, the AC50 under setting [1] is 11.2 µM [rising, single point].

For the molecule `Cc1[nH]c2ccccc2c1C(=O)/C=C/c1ccccc1Cl`, under setting [1], the AC50 was 17.8 µM [rising, partial curve]. Consider `CCCCOC(=O)N1CCOCCOCCN(C(=O)OCCCC)CCOCCOCC1`, for which the AC50 under setting [1] was 12.6 µM [rising, single point].

With `Cc1ccc(-n2nc(-c3ccc(N)cc3)cc2N)cc1`, under setting [1], the AC50 was 20 µM [rising, partial curve, poor fit]. On the same count and under the same terms, in the case of `COc1ccc(S(=O)(=O)N(CC(=O)Nc2cc(C)on2)Cc2ccccc2)cc1` it was 15.8 µM [rising, single point].

Turning to `COc1ccc(OC)c(NC(=O)CSc2n[nH]c(-c3ccccc3Cl)n2)c1`, under setting [1], the AC50 was 31.6 µM [rising, single point].

For the molecule `COc1ccc2cc(C(=O)c3ccccc3)c(=O)oc2c1`, the AC50 under setting [2] is 35.5 µM [rising, single point]. For the molecule `CCOC(=O)c1c(C)[nH]c(C2=NNC(=Nc3ccc(OCC)cc3)SC2)c1C`, the AC50 is, setting by setting: under setting [2], 20 µM [rising, single point]; under setting [1], 17.8 µM [rising, partial curve]. With `c1ccc(-c2cn(-c3ccccc3)c3ncnc(N4CCN(c5ccccc5)CC4)c23)cc1`, under setting [2], the AC50 was 6.31 µM [falling, single point].

For `CC(C)OC(=O)c1cc2c(ccn2C)n1CC(=O)N(Cc1ccccc1)c1ccccc1`, the AC50 under setting [2] was 11.2 µM [rising, partial curve] and the AC50 under setting [1] is 11.2 µM [rising, partial curve]. On to `c1ccc(-c2oc3ncnc(NCCCn4ccnc4)c3c2-c2ccccc2)cc1`, for which the AC50 under setting [2] was 7.94 µM [rising, partial curve] and the AC50 under setting [1] is 14.1 µM [rising, partial curve]. For `Clc1ccccc1CNc1ncnc2nc[nH]c12`, the AC50 by setting is: under setting [2], 15.8 µM [rising, single point]; under setting [1], 20 µM [rising, single point].

Take `O=C(C1CCN(Cc2ccc(Cl)cc2)CC1)N1CCN(C(c2ccccc2)c2ccccc2)CC1`: under setting [2], the AC50 was 28.2 µM [falling, single point]. Same read-out and setting: with `COc1ccc(OC)c(NC(=O)CSC2=Nc3ccccc3C3=NC(CCC(=O)NCc4ccco4)C(=O)N23)c1` (stereo unspecified) the figure was 0.355 µM [rising, partial curve, poor fit].

Turning to `O=c1c(-c2cccc(F)c2)nc2cncnc2n1Cc1ccc(F)cc1`, the AC50 runs as follows: under setting [2], 8.91 µM [falling, partial curve]; under setting [1], 20 µM [falling, partial curve, poor fit].

As for `Cc1cc(C(=O)CSc2n[nH]c(N)n2)c(C)n1-c1ccc2c(c1)OCO2`, the half-maximal activity concentration (AC50) under setting [1] is 15.8 µM [rising, single point].

On to `O=C(N/N=C/c1cc(Cl)ccc1O)C(=O)Nc1ccccc1OC(F)(F)C(F)F`, for which the AC50 is 1.41 µM [rising, partial curve, poor fit] under setting [2] and 14.1 µM [rising, partial curve] under setting [1]. As for `CC(C)=C1C2CCC1C(C(=O)Nc1cc(C)cc(C)c1)C2C(=O)O` (stereo unspecified), the AC50 under setting [2] is 0.0282 µM [rising, full curve, poor fit]. Consider `CCOc1ccc(C2=C(C=C(C#N)C#N)C(c3ccccc3)c3ccccc3O2)cc1` (stereo unspecified), for which, under setting [1], the AC50 was 12.6 µM [rising, partial curve]. With `O=C(COC(=O)CCCN1C(=O)c2cccc3cccc(c23)C1=O)Nc1cccc(C(F)(F)F)c1`, the AC50 under setting [1] was 2 µM [falling, full curve, poor fit]. In the case of `O=C1Nc2ccc(S(=O)(=O)NCCC3=CCCCC3)c3cccc1c23`, the AC50 under setting [2] was 20 µM [rising, partial curve, poor fit] and the AC50 under setting [1] was 22.4 µM [rising, single point]. Take `Oc1cccc2c(NC(=S)Nc3ccc(SC(F)F)cc3)cccc12`: under setting [1], the AC50 was 11.2 µM [rising, partial curve]. Regarding `CC1SC(=Nc2ccccc2)N(S(=O)(=O)c2ccccc2)C1=O` (stereo unspecified), the AC50 under setting [1] was 12.6 µM [falling, partial curve, poor fit].

On to `CC(=O)N1N=C(c2ccccc2)CC1c1ccccc1[N+](=O)[O-]` (stereo unspecified), for which the AC50 under setting [1] was 0.141 µM [rising, full curve, poor fit]. With `O=C(Cn1cc(/C=N/NC(=O)c2ccccc2Br)c2ccccc21)Nc1ccc(F)cc1`, the half-maximal activity concentration (AC50) runs as follows: under setting [2], 11.2 µM [rising, partial curve]; under setting [1], 20 µM [rising, single point]. For the molecule `Cc1ccc(S(=O)(=O)N(CC(=O)Nc2ccc(Cl)c([N+](=O)[O-])c2)C2CCCCC2)cc1`, the AC50 under setting [1] is 15.8 µM [rising, partial curve]. On to `CCCCn1c(=S)[nH]c2cc(S(=O)(=O)N3CCCCC3)ccc21`, for which the AC50 under setting [1] was 14.1 µM [rising, single point]. Turning to `Cc1ccc(C(=O)Nc2ccc(-n3c(C)nc4ccccc4c3=O)cc2)cc1[N+](=O)[O-]`, the AC50 under setting [1] was 35.5 µM [rising, single point]. Still for that read-out and setting: with `CCCc1cc(NC(=O)CCl)n(-c2ccccc2)n1` the figure was 35.5 µM [falling, single point]. In the case of `O=C(COC(=O)c1ccc2c(c1[N+](=O)[O-])C(=O)c1ccccc1C2=O)NC1CC1`, the AC50 reads like this: under setting [2], 11.2 µM [falling, partial curve, poor fit]; under setting [1], 10 µM [falling, partial curve, poor fit].

In the case of `COc1ccc(CC2(CO)CCN(S(=O)(=O)c3c(C)nn(C)c3C)CC2)cc1`, the AC50 runs as follows: under setting [2], 11.2 µM [falling, partial curve]; under setting [1], 1.26 µM [falling, partial curve]. With `CC(=O)Nc1nc2nc(-c3ccccc3)cc(-c3ccccc3)n2n1`, under setting [1], the AC50 was 14.1 µM [rising, partial curve]. As for `Cc1nc(NC(=O)C23CC4CC(CC(C4)C2)C3)sc1Cc1ccc2c(c1)OCO2`, the AC50 by setting is: under setting [2], 11.2 µM [rising, single point]; under setting [1], 12.6 µM [rising, partial curve]. For the molecule `COc1ccc(C(=O)CSc2nn3c(=O)c(C(C)(C)C)nnc3s2)cc1`, the AC50 under setting [2] was 15.8 µM [falling, single point]. Regarding `COc1ccc(-c2cc(CS(=O)(=O)c3ccccc3)on2)cc1`, under setting [2], the AC50 is 0.0501 µM [rising, full curve, poor fit].
